Data: PubChem BioAssay AID248 (DTP/NCI, 2004)
The list shows only some results of the screen, not a fair sample: it gathers some chemical classes. Other doses and runs of a compound may be missing. T/C is the treated group as % of the vehicle group. Some doses have a count of surviving animals in place of a T/C: the source files T/C as zero there, which appears to mark a toxic dose or a test without result, not a measured value. Some survivor counts are full or nearly so, which does not show that the dose was tolerated: the source hardly ever lists a survival T/C far under the control, and the zero likely stands for such cases as well. Survivors were counted at the toxicity check, usually on the fifth day, unless a day is given; later deaths do not show. Schedule codes are those of the source, taken here to give the interval after Q, in days (D) or hours (H), and the number of doses after X. Some schedules carry Z or #; the key to these is not given. Some entries hold several experiments; the results are listed from low to high. Where survival is the endpoint, the PubChem record calls one and a half times the control and up active, and a quarter to a half above the control has no call in these data; cut-offs in other NCI protocols can differ. Some entries show no survivor count and are marked so; the dose need not have been tolerated. Some T/C values are followed by the survivors on the day toxicity was checked, most often the fifth; where neither a count nor a note follows, no animal had died by that day.

Tested on: L1210 leukemia ip in BDF1 mice, survival T/C
Test: NCI In Vivo Anticancer Drug Screen. Data for tumor model L1210 Leukemia (intraperitoneal) in B6D2F1 (BDF1) mice
Details: T/C endpoint: mean survival time, higher T/C = longer survival
[1] = dose: 3.12 mg/kg/injection, schedule: Q04DX003 (ip), vehicle: Klucel (hydroxypropylcellulose) (HPC)
[2] = dose: 6.25 mg/kg/injection, schedule: Q04DX003 (ip), vehicle: Klucel (hydroxypropylcellulose) (HPC)
[3] = dose: 12.5 mg/kg/injection, schedule: Q04DX003 (ip), vehicle: Klucel (hydroxypropylcellulose) (HPC)
[4] = dose: 25.0 mg/kg/injection, schedule: Q04DX003 (ip), vehicle: Klucel (hydroxypropylcellulose) (HPC)
[5] = dose: 50.0 mg/kg/injection, schedule: Q04DX003 (ip), vehicle: Klucel (hydroxypropylcellulose) (HPC)
[6] = dose: 100.0 mg/kg/injection, schedule: Q04DX003 (ip), vehicle: Klucel (hydroxypropylcellulose) (HPC)
[7] = dose: 200.0 mg/kg/injection, schedule: Q04DX003 (ip), vehicle: Klucel (hydroxypropylcellulose) (HPC)
[8] = dose: 400.0 mg/kg/injection, schedule: Q04DX003 (ip), vehicle: Klucel (hydroxypropylcellulose) (HPC)

## CCOP(=O)(NCCO)N(CCCl)CCCl (stereo not drawn)
dose: 50.0 mg/kg/injection, schedule: Q01DX Z (ip), vehicle: saline
  T/C: 88 % of control
dose: 100.0 mg/kg/injection, schedule: Q01DX Z (ip), vehicle: saline
  T/C: 93 % of control
dose: 200.0 mg/kg/injection, schedule: Q01DX Z (ip), vehicle: saline
  T/C: 96 % of control [5 of 6 alive]
dose: 400.0 mg/kg/injection, schedule: Q01DX Z (ip), vehicle: saline
  T/C: 100 % of control

## CCOP(=O)(NCCCO)N(CCCl)CCCl (stereo not drawn)
dose: 28.0 mg/kg/injection, schedule: Q01DX Z (ip), vehicle: methylcellulose (MC)
  T/C: 110 % of control
dose: 56.0 mg/kg/injection, schedule: Q01DX Z (ip), vehicle: methylcellulose (MC)
  T/C: 88 % of control
dose: 112.0 mg/kg/injection, schedule: Q01DX Z (ip), vehicle: methylcellulose (MC)
  survivor count: 4 of 6
dose: 225.0 mg/kg/injection, schedule: Q01DX Z (ip), vehicle: methylcellulose (MC)
  survivor count: 3 of 6

## C=CCC[P+](C)(c1ccccc1)c1ccccc1.F[P-](F)(F)(F)(F)F
dose: 0.78 mg/kg/injection, schedule: Q04DX003 (ip), vehicle: Klucel (hydroxypropylcellulose) (HPC)
  T/C: 91 % of control
dose: 1.56 mg/kg/injection, schedule: Q04DX003 (ip), vehicle: Klucel (hydroxypropylcellulose) (HPC)
  T/C: 107 % of control
[1]
  T/C: 92 and 98 % of control
[2]
  survivor count: 4 of 6
[3]
  survivor count: 0 of 6
[4]
  survivor count: 0 of 6
[5]
  survivor count: 0 of 6 and 1 of 6
[6]
  survivor count: 6 of 6
[7]
  survivor count: 6 of 6
[8]
  survivor count: 0 of 6

## OC(SC(O)C(Cl)(Cl)Cl)C(Cl)(Cl)Cl (stereo not drawn)
dose: 100.0 mg/kg/injection, schedule: Q01DX009 (sc), vehicle: olive oil, sesame oil, peanut oil
  T/C: 96 % of control
dose: 100.0 mg/kg/injection, schedule: Q04DX003 (sc), vehicle: olive oil, sesame oil, peanut oil
  T/C: 102 % of control
dose: 200.0 mg/kg/injection, schedule: Q01DX009 (sc), vehicle: olive oil, sesame oil, peanut oil
  T/C: 89 % of control
dose: 200.0 mg/kg/injection, schedule: Q04DX003 (sc), vehicle: olive oil, sesame oil, peanut oil
  T/C: 113 % of control
dose: 400.0 mg/kg/injection, schedule: Q01DX009 (sc), vehicle: olive oil, sesame oil, peanut oil
  T/C: 97 % of control
dose: 400.0 mg/kg/injection, schedule: Q04DX003 (sc), vehicle: olive oil, sesame oil, peanut oil
  T/C: 102 % of control

## ClCCN1Cc2ccccc2Cc2ccccc2C1
[1]
  T/C: 92 % of control
[2]
  T/C: 92 % of control
[3]
  T/C: 92 % of control
[6]
  survivor count: 0 of 6
[7]
  survivor count: 0 of 6
[8]
  survivor count: 0 of 6

## NC(=O)c1[nH]cnc1/N=N/N(CCCl)CCCl.[Cl][Cu][Cl]
dose: 9.5 mg/kg/injection, schedule: Q01DX001 (ip), vehicle: saline
  T/C: 120 % of control
dose: 19.0 mg/kg/injection, schedule: Q01DX001 (ip), vehicle: saline
  T/C: 100 % of control
dose: 38.0 mg/kg/injection, schedule: Q01DX001 (ip), vehicle: saline
  T/C: 103 % of control
dose: 75.0 mg/kg/injection, schedule: Q01DX001 (ip), vehicle: saline
  survivor count: 0 of 6
dose: 150.0 mg/kg/injection, schedule: Q01DX001 (ip), vehicle: saline
  survivor count: 0 of 6
dose: 300.0 mg/kg/injection, schedule: Q01DX001 (ip), vehicle: saline
  survivor count: 0 of 6

## CCN(CC)CCOC(=O)C(O)(c1ccccc1)c1cc(C)cc(C)c1C (stereo not drawn)
dose: 10.0 mg/kg/injection, schedule: Q01DX009 (ip), vehicle: Klucel (hydroxypropylcellulose) (HPC)
  T/C: 112 % of control
dose: 12.5 mg/kg/injection, schedule: Q01DX009 (ip), vehicle: Klucel (hydroxypropylcellulose) (HPC)
  T/C: 100 % of control
[3]
  T/C: 97 % of control
dose: 20.0 mg/kg/injection, schedule: Q01DX009 (ip), vehicle: Klucel (hydroxypropylcellulose) (HPC)
  T/C: 110 % of control
dose: 20.0 mg/kg/injection, schedule: Q04DX003 (ip), vehicle: Klucel (hydroxypropylcellulose) (HPC)
  T/C: 96 % of control
dose: 25.0 mg/kg/injection, schedule: Q01DX009 (ip), vehicle: Klucel (hydroxypropylcellulose) (HPC)
  T/C: 94 % of control
[4]
  T/C: 97 % of control
dose: 40.0 mg/kg/injection, schedule: Q01DX009 (ip), vehicle: Klucel (hydroxypropylcellulose) (HPC)
  T/C: 95 % of control

## CCCCSP(=O)(CC)OCC (stereo not drawn)
dose: 0.5 mg/kg/injection, schedule: Q01DX001 (ip), vehicle: saline
  T/C: 92 % of control [survivor count not shown]
dose: 1.0 mg/kg/injection, schedule: Q01DX001 (ip), vehicle: saline
  T/C: 97 % of control [survivor count not shown]
dose: 2.0 mg/kg/injection, schedule: Q01DX001 (ip), vehicle: saline
  T/C: 94 % of control [survivor count not shown]
dose: 4.0 mg/kg/injection, schedule: Q01DX001 (ip), vehicle: saline
  T/C: 96 % of control [survivor count not shown]

## O=C(OC1CN2CCC1CC2)c1ccc(O)cc1 (stereo not drawn)
dose: 6.25 mg/kg/injection, schedule: Q04DX003 (ip), vehicle: saline
  T/C: 102 % of control
dose: 12.5 mg/kg/injection, schedule: Q04DX003 (ip), vehicle: saline
  T/C: 100 % of control
dose: 25.0 mg/kg/injection, schedule: Q04DX003 (ip), vehicle: saline
  T/C: 108 % of control

## O=P(Cl)(Oc1ccccc1)N1CCCCC1 (stereo not drawn)
[4]
  T/C: 106 % of control
[5]
  T/C: 104 % of control
[6]
  T/C: 90 and 98 % of control
[7]
  survivor count: 0 of 6
[8]
  survivor count: 0 of 6

## CC(C)(C)P(=S)(Cl)c1ccccc1 (stereo not drawn)
dose: 100.0 mg/kg/injection, schedule: Q01DX009 (ip), vehicle: Klucel (hydroxypropylcellulose) (HPC)
  T/C: 100 % of control
dose: 200.0 mg/kg/injection, schedule: Q01DX009 (ip), vehicle: Klucel (hydroxypropylcellulose) (HPC)
  T/C: 97 % of control
dose: 400.0 mg/kg/injection, schedule: Q01DX009 (ip), vehicle: Klucel (hydroxypropylcellulose) (HPC)
  T/C: 92 % of control

## OCCN(CCBr)c1ccccc1
dose: 100.0 mg/kg/injection, schedule: Q04DX003 (ip), vehicle: saline
  T/C: 103 % of control
dose: 200.0 mg/kg/injection, schedule: Q04DX003 (ip), vehicle: saline
  T/C: 97 % of control
dose: 400.0 mg/kg/injection, schedule: Q04DX003 (ip), vehicle: saline
  T/C: 95 % of control

## CC1CCC(OO)(OOC2(OO)CCC(C)CC2)CC1 (stereo not drawn)
dose: 50.0 mg/kg/injection, schedule: Q01DX009 (ip), vehicle: saline with Tween-80
  T/C: 107 % of control [survivor count not shown]
dose: 100.0 mg/kg/injection, schedule: Q01DX009 (ip), vehicle: saline with Tween-80
  T/C: 96 % of control [survivor count not shown]
dose: 200.0 mg/kg/injection, schedule: Q01DX009 (ip), vehicle: saline with Tween-80
  T/C: 96 % of control [survivor count not shown]

## CC(C)(C)NCCSP(=S)(c1ccccc1)c1ccccc1
dose: 100.0 mg/kg/injection, schedule: Q04DX003 (ip), vehicle: saline with Tween-80
  T/C: 100 % of control
dose: 200.0 mg/kg/injection, schedule: Q04DX003 (ip), vehicle: saline with Tween-80
  T/C: 96 % of control
dose: 400.0 mg/kg/injection, schedule: Q04DX003 (ip), vehicle: saline with Tween-80
  T/C: 86 % of control

## CN(CN(CN(C[n+]1ccccc1)[N+](=O)[O-])[N+](=O)[O-])[N+](=O)[O-]
dose: 100.0 mg/kg/injection, schedule: Q04DX002 (ip), vehicle: saline
  T/C: 105 % of control [survivor count not shown]
dose: 200.0 mg/kg/injection, schedule: Q04DX002 (ip), vehicle: saline
  T/C: 102 % of control [survivor count not shown]

## O=P(Nc1nncs1)(Oc1ccccc1)Oc1ccccc1
dose: 100.0 mg/kg/injection, schedule: Q01DX009 (ip), vehicle: carboxymethylcellulose (CMC)
  T/C: 93 % of control
dose: 200.0 mg/kg/injection, schedule: Q01DX009 (ip), vehicle: carboxymethylcellulose (CMC)
  T/C: 105 % of control
dose: 400.0 mg/kg/injection, schedule: Q01DX009 (ip), vehicle: carboxymethylcellulose (CMC)
  T/C: 112 % of control
